# From the supplement of paper PMC12067093, “Discovery and optimisation of a covalent ligand for TRIM25 and its application to targeted protein ubiquitination” (Chemical Science, 2025)
# Amino acid sequences for entries named in this document (tags omitted). A change or cut given only in a name is not applied to a line headed by its entry.
# UniProt O94913, whole entry, looked up: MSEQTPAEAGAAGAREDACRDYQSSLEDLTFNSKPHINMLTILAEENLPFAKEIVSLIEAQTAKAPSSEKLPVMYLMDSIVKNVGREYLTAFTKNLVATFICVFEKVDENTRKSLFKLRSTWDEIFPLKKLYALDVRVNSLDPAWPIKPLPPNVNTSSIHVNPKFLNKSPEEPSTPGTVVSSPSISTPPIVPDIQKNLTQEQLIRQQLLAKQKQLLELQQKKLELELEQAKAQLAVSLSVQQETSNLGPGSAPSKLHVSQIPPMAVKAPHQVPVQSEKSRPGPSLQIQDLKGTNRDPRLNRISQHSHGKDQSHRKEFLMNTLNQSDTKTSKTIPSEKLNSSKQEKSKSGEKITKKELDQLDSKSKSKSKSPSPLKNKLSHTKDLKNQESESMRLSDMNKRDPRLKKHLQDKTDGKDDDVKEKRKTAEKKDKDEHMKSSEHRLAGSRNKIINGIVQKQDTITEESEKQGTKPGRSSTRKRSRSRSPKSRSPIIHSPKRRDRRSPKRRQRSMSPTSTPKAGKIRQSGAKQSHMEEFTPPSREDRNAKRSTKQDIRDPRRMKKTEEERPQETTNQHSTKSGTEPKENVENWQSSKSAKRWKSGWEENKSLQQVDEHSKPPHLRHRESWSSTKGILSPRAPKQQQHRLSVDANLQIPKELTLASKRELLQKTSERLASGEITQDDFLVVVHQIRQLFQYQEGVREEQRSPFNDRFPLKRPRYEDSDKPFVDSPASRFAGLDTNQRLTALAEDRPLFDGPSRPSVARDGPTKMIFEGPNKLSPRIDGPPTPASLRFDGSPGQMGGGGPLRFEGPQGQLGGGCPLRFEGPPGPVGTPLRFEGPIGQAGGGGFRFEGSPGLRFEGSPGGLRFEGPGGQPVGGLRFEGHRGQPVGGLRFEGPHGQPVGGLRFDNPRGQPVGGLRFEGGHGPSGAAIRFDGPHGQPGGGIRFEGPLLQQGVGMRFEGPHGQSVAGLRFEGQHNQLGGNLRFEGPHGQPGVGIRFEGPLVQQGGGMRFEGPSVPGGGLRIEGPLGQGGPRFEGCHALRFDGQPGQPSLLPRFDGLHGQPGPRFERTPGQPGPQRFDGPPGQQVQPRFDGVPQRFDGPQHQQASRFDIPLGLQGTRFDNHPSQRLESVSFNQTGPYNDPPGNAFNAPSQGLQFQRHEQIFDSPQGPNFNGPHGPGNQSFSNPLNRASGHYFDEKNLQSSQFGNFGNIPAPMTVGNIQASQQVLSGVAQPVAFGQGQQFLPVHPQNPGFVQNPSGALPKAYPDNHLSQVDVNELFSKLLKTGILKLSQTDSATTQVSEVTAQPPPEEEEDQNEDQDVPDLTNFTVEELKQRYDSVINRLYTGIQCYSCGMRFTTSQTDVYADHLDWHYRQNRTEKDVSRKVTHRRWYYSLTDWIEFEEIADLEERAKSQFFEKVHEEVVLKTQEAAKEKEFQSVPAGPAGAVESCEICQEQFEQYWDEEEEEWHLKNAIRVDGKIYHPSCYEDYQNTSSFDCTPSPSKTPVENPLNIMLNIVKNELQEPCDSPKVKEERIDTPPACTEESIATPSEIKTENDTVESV
# UniProt Q29RF7: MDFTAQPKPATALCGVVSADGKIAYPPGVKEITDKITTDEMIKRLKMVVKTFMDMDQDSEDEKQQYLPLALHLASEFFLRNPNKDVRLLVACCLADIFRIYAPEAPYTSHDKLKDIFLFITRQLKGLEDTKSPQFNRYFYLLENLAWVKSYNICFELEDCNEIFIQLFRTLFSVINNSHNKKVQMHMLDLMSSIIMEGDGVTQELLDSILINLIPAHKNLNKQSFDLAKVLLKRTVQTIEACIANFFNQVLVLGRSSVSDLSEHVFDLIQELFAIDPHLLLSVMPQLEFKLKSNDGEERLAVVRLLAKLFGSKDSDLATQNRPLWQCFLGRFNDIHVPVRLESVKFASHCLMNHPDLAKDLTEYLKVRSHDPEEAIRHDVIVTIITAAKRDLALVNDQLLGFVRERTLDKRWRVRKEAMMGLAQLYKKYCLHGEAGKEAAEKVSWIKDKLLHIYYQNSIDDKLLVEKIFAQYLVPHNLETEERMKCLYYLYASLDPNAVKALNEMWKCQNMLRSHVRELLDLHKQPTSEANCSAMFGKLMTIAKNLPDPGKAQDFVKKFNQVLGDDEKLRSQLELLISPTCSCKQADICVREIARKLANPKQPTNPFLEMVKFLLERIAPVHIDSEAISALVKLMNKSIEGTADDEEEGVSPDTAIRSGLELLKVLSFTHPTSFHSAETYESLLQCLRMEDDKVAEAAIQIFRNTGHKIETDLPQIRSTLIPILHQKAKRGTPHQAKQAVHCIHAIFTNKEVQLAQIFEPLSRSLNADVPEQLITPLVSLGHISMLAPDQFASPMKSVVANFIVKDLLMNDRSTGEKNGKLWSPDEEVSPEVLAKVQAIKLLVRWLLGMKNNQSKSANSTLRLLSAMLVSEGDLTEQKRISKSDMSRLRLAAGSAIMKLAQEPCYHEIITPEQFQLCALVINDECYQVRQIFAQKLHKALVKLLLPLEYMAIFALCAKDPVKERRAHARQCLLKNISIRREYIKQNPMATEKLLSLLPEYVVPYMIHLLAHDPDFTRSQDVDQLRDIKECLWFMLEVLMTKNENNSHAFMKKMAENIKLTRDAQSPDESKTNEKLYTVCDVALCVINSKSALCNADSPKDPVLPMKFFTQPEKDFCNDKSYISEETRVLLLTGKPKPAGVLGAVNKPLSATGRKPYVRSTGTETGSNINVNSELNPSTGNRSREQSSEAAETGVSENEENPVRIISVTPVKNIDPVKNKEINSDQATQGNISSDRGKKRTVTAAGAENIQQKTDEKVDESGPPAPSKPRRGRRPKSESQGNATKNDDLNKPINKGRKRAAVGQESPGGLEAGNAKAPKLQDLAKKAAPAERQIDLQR
# UniProt Q15084: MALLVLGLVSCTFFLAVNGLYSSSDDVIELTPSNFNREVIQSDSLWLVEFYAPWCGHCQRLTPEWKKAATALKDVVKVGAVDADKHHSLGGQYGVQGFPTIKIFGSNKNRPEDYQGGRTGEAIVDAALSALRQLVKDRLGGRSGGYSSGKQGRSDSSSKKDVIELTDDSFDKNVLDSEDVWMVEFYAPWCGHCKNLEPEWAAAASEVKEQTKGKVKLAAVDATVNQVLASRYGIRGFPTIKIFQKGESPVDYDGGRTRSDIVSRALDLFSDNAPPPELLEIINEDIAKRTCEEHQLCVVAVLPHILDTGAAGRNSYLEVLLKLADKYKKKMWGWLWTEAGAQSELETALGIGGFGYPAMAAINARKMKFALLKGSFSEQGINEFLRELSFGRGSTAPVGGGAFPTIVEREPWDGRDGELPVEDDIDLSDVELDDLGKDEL
# UniProt P12004, whole entry, looked up: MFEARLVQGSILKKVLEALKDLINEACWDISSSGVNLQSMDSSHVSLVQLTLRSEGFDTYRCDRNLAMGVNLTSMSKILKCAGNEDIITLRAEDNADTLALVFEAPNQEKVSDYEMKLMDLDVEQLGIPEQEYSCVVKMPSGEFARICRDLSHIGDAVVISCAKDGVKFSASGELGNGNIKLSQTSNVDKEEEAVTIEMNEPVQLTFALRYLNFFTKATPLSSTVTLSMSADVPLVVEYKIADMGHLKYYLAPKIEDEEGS
# UniProt Q9UKK3: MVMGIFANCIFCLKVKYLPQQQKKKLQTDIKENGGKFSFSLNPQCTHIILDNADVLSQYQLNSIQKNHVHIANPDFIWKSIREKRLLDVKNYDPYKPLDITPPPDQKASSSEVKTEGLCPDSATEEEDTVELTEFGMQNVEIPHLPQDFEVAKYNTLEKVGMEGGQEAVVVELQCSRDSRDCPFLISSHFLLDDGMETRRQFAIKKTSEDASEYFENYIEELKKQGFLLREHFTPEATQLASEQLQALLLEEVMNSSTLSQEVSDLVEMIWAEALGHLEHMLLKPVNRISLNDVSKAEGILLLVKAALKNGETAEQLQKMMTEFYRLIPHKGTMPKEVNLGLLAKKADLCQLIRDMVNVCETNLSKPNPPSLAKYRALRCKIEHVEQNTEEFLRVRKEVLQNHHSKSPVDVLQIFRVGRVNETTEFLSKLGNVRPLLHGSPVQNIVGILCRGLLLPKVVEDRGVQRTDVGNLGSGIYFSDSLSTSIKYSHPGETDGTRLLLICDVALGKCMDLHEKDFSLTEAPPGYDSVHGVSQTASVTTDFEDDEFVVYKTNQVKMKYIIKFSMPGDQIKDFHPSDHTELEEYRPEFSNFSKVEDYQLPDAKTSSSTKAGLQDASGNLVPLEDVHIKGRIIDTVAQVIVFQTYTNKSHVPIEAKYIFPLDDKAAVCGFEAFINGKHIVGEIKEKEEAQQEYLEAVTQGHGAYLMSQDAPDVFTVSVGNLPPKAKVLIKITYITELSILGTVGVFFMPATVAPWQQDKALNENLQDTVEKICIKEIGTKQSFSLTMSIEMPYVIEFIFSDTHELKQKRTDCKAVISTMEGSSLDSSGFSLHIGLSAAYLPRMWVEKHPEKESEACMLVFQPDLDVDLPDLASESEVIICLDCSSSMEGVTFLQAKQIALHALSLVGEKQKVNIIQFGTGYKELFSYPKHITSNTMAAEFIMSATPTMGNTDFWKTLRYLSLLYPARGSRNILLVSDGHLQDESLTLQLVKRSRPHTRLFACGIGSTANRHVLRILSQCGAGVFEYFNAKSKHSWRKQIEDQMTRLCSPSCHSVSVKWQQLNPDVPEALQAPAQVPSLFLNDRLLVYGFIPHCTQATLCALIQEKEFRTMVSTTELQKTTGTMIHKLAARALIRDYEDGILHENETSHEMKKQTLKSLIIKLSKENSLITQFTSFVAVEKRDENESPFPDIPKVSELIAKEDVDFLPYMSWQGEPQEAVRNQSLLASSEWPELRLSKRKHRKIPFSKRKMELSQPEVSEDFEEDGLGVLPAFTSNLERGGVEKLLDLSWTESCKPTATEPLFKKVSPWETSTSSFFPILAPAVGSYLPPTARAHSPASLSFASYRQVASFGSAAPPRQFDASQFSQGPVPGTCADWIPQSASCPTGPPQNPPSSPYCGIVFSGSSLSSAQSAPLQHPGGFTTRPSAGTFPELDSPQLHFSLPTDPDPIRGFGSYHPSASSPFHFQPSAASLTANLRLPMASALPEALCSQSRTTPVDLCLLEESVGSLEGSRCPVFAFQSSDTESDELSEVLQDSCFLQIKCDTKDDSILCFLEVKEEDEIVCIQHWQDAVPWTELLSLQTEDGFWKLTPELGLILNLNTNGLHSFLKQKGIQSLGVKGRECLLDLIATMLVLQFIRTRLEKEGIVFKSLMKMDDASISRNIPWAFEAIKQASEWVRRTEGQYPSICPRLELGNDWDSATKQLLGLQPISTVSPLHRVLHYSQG
# UniProt Q5JVF3: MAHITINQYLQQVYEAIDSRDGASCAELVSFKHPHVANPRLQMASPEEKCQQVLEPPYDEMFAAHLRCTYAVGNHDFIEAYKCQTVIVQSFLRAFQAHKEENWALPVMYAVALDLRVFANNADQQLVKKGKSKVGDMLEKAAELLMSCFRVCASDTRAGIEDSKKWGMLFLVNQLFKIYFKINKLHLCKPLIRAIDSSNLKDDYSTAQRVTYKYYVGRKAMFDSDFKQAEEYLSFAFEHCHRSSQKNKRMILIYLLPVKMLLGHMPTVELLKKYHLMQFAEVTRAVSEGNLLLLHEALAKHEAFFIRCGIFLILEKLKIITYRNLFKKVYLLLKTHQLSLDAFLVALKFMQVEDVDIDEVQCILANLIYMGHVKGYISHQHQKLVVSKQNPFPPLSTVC
# UniProt Q86TB9: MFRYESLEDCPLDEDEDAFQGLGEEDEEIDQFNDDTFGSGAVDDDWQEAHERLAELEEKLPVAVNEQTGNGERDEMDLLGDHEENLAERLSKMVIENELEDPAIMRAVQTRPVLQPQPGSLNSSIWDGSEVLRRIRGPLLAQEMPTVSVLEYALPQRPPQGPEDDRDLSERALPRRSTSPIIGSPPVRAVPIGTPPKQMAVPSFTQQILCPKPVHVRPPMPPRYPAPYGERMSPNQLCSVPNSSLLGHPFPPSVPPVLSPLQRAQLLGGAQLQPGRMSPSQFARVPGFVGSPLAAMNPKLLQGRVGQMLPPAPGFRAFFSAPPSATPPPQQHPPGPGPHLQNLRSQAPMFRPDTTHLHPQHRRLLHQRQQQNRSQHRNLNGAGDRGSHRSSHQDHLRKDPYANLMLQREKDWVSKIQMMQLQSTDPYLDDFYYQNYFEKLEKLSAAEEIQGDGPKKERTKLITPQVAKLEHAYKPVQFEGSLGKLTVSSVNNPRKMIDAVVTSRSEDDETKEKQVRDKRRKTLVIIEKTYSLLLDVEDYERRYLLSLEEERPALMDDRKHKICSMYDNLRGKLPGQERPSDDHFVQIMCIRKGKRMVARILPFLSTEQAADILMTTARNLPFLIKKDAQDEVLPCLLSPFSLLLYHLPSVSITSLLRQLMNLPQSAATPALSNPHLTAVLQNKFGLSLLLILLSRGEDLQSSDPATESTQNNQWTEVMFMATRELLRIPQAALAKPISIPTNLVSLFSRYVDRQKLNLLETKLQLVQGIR
# The other results are listed elsewhere or left out.
# Compound: CC1Cc2ccccc2N1C(=O)C1CCCN(C1)C(=O)CCl (mixture of isomers) [TRIM25 ligand 11 (diastereomer mixture)]
# Assay: probe-labelled cysteine peptide fold change vs DMSO (competition) (log2 fold change); higher = less target engagement (more negative = stronger competition)
# Settings: THP-1, incubation time: 4 h
# 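Also: competitive chemoproteomic profiling in live THP-1 cells with an iodoacetamide desthiobiotin (IA-DTB) probe, comparing probe-labelled peptide intensities in compound-treated cells against DMSO-treated controls.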
Target,probe-labelled cysteine peptide fold change (10 µM),probe-labelled cysteine peptide fold change (50 µM)
PAXX_Q9BUH6_180_RCPGESLINPGFK (UniProt Q9BUH6),-0.0792,-0.0985
PDHX_O00330_307_STVPHAYATADCDLGAVLK (UniProt O00330),0.089,-0.262
PDE1A_P54750_406_EAELGLPFSPLCDR (UniProt P54750),0.101,0.000655
PDLIM1_O00151_286_HRHPECYVCTDCGTNLK (UniProt O00151),0.117,0.192
PCF11_O94913_1518_NELQEPCDSPK (UniProt O94913),-0.0353,-0.154
PDS5A_Q29RF7_686_VLSFTHPTSFHSAETYESLLQCLR (UniProt Q29RF7),-0.152,-0.172
PDK3_Q15120_191_HIGSIDPTCNVADVVK (UniProt Q15120),-0.0471,-0.122
PDCD11_Q14690_330+333_ACILCVHPR (UniProt Q14690),-0.145,0.195
PCF11_O94913_1346_LYTGIQCYSCGMR (UniProt O94913),0.0928,0.0469
PDCD11_Q14690_1062_SIKPTHVVVTLEDGIIGCIHASHILDDVPEGTSPTTK (UniProt Q14690),0.0843,-0.025
PDCD4_Q53EL6_350_EYLLSGDISEAEHCLK (UniProt Q53EL6),0.161,0.0604
PDIA6_Q15084_297_RTCEEHQLCVVAVLPHILDTGAAGR (UniProt Q15084),-0.196,-0.0884
PCNA_P12004_81_CAGNEDIITLR (UniProt P12004),0.12,0.0664
PCNT_O95613_2278_ADTSLPQTQGPGLLCSPGVSAAALALQWAESPPADDHHVQR (UniProt O95613),-0.206,0.103
PARP1_P09874_295+298_VADGMVFGALLPCEECSGQLVFK (UniProt P09874),-0.398,0.102
PDCD11_Q14690_333_ACILCVHPR (UniProt Q14690),-0.024,0.176
PDIA6_Q15084_297_TCEEHQLCVVAVLPHILDTGAAGR (UniProt Q15084),-0.0708,-0.00495
PDIA5_Q14554_456_IACAAVDCVK (UniProt Q14554),-0.0864,-0.127
PCNT_O95613_974_HLSSLDSLESCYLSEFQTIR (UniProt O95613),0.0898,-0.0306

# Record cards, as listed above:
# PDIA6_Q15084_297_RTCEEHQLCVVAVLPHILDTGAAGR (UniProt Q15084) as listed: probe-labelled cysteine peptide fold change (10 µM) = -0.196; probe-labelled cysteine peptide fold change (50 µM) = -0.0884
# PCNA_P12004_81_CAGNEDIITLR (UniProt P12004) as listed: probe-labelled cysteine peptide fold change (10 µM) = 0.12; probe-labelled cysteine peptide fold change (50 µM) = 0.0664

# More records:

Target,probe-labelled cysteine peptide fold change (10 µM),probe-labelled cysteine peptide fold change (50 µM)
PDE12_Q6L8Q7_268_ELESVCVVEAGPGTCTFDHR (UniProt Q6L8Q7),0.0977,-0.0954
PCM1_Q15154_876_SDGSENLCTPQQSR (UniProt Q15154),-0.203,-0.397
PDLIM5_Q96HC4_449_SWHPEEFNCAHCK (UniProt Q96HC4),0.0011,-0.0904
PCNT_O95613_430_CLEDLEFK (UniProt O95613),-0.168,0.0936
PDS5A_Q29RF7_327_DSDLATQNRPLWQCFLGR (UniProt Q29RF7),-0.0247,0.153
PDS5A_Q29RF7_92_LLVACCLADIFR (UniProt Q29RF7),0.0773,0.399
PASK_Q96RG2_759+761_ELFFSDQTDQTSSNCSCATSELR (UniProt Q96RG2),0.0516,0.0688
PCMT1_P22061_102_MVGCTGK (UniProt P22061),-0.232,-0.112
PARP4_Q9UKK3_1099_LLVYGFIPHCTQATLCALIQEK (UniProt Q9UKK3),0.224,-0.243
PCMT1_P22061_43_CNPYMDSPQSIGFQATISAPHMHAYALELLFDQLHEGAK (UniProt P22061),-0.0924,-0.303
PDF_Q9HBH1_222_IIQHEMDHLQGCLFIDK (UniProt Q9HBH1),-0.0352,0.0675
PDPK1_O15530_181_KIGSFDETCTR (UniProt O15530),-0.0663,-0.0873
PCNT_O95613_2059_VLEDCQLPK (UniProt O95613),-0.0791,-0.0562
PARP4_Q9UKK3_12_VMGIFANCIFCLK (UniProt Q9UKK3),0.0309,0.242
PDIA3_P30101_85+92_VDCTANTNTCNK (UniProt P30101),0.114,0.0316
PCM1_Q15154_783_IQALQTACPDLQLSAASVGNCPTK (UniProt Q15154),0.0485,-0.142
PCID2_Q5JVF3_83_CQTVIVQSFLR (UniProt Q5JVF3),0.0416,0.0246
PDCD2L_Q9BRP1_260_IAACQEQILR (UniProt Q9BRP1),0.104,0.104
PATL1_Q86TB9_589_GKLPGQERPSDDHFVQIMCIR (UniProt Q86TB9),-0.0345,-0.16
